In the supplement of paper PMC10849652:
The other results are listed elsewhere or left out.

Amino acid sequences for entries named in this document (tags omitted). A change or cut given only in a name is not applied to a line headed by its entry.
UniProt P13497: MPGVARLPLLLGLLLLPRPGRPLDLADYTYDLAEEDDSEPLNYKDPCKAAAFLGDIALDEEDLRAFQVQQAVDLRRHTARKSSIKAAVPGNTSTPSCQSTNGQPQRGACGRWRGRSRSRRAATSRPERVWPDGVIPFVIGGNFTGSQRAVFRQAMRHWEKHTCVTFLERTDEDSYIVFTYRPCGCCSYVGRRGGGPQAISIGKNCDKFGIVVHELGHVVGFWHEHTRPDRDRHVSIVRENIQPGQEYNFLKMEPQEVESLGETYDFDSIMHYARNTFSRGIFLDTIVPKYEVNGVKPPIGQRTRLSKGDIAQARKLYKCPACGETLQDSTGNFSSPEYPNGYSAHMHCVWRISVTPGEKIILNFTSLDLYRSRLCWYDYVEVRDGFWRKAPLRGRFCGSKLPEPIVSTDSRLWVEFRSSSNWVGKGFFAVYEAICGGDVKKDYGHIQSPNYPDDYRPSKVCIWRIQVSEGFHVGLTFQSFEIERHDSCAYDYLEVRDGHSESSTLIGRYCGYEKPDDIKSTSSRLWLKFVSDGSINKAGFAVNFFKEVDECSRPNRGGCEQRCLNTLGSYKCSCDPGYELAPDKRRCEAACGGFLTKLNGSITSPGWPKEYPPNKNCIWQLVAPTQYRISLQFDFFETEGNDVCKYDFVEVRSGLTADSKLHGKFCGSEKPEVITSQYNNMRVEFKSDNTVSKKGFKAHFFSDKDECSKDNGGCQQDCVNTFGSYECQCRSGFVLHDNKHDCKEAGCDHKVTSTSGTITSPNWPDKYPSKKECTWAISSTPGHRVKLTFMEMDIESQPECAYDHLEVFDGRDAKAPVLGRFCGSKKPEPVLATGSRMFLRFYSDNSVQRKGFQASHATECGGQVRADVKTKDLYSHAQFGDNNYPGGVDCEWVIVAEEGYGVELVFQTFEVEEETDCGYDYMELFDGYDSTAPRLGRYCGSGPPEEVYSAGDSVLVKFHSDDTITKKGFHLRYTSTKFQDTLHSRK
UniProt Q14457, whole entry, looked up: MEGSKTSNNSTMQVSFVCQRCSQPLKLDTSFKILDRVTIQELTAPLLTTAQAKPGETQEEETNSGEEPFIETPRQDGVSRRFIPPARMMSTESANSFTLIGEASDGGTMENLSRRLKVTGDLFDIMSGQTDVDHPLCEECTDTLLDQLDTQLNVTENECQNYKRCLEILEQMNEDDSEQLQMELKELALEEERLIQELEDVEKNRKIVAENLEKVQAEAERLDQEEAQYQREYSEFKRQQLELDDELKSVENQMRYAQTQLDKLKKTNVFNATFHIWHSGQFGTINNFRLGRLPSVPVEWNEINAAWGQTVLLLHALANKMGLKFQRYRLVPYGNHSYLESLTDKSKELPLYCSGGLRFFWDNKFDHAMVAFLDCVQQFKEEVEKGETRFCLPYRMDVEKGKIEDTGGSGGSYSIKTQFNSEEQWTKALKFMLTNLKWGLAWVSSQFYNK
UniProt Q07812, whole entry, looked up: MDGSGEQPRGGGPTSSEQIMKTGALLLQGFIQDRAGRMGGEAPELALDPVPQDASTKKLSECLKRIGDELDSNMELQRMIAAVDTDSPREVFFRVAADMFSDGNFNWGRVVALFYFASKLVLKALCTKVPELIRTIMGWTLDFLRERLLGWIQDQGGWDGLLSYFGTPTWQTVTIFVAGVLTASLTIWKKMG
UniProt P53004: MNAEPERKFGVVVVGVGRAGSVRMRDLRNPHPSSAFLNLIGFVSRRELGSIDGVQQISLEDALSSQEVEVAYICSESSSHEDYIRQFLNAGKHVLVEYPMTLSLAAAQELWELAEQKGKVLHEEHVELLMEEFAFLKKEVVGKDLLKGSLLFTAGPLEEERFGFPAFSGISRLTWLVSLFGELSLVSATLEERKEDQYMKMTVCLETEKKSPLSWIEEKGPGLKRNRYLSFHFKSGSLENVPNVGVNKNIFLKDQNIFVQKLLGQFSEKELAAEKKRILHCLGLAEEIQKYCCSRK
UniProt Q00973: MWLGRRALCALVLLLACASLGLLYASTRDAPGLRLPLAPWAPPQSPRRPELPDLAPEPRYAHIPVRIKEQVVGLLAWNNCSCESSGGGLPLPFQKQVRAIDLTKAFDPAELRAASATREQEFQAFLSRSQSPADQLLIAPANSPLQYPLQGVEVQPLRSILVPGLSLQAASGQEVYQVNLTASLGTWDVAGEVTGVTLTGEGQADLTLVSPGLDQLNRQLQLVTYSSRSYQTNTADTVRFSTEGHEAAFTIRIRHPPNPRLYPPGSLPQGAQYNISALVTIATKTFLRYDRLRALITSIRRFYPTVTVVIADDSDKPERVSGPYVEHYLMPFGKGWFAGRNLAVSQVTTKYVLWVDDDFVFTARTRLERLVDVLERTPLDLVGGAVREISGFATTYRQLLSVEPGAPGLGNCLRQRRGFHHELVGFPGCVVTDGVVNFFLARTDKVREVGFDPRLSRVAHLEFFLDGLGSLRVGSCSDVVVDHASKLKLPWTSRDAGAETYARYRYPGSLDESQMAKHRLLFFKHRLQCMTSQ
UniProt Q13490, whole entry, looked up: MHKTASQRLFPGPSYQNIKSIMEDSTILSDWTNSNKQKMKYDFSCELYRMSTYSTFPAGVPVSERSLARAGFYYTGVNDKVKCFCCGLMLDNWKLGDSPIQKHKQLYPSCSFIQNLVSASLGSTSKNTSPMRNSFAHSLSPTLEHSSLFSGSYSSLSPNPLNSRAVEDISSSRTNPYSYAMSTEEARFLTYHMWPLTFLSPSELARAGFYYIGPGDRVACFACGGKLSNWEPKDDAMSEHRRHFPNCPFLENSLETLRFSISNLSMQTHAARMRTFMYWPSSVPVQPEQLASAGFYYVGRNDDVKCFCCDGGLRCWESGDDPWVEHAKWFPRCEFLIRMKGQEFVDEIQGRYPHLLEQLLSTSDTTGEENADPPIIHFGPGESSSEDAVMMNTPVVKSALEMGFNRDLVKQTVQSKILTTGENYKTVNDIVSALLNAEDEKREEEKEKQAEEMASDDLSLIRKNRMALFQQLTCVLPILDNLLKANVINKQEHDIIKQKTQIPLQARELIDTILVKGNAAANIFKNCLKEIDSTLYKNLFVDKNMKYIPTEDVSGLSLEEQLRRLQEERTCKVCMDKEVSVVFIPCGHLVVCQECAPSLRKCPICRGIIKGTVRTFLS
UniProt O95999: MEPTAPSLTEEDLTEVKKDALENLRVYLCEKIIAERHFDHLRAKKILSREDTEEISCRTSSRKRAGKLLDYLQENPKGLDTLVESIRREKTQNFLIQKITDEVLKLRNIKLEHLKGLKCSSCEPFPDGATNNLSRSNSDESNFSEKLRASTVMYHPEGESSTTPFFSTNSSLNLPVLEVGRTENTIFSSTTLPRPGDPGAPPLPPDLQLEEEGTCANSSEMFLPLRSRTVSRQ
UniProt O95817, whole entry, looked up: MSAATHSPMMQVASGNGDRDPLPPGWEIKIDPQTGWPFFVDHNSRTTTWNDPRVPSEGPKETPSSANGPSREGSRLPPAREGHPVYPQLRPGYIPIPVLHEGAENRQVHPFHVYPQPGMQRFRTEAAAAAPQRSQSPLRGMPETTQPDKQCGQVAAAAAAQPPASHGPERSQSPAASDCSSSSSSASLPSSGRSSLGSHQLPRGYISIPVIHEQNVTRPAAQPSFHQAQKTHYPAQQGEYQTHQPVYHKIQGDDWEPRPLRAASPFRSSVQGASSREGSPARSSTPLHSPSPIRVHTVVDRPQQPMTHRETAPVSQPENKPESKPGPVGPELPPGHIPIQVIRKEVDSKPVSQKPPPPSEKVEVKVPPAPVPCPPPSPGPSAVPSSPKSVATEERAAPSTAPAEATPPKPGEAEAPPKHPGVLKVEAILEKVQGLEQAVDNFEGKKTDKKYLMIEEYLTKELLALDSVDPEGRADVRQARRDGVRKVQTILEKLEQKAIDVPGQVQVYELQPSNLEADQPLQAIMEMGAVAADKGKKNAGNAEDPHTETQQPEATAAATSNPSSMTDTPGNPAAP
UniProt Q12981: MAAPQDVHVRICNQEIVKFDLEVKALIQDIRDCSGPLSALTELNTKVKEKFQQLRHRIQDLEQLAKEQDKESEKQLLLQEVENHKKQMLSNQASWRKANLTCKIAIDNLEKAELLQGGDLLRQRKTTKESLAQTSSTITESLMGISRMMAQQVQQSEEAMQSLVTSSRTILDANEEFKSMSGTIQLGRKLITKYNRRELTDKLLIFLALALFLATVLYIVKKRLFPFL
UniProt Q6QNY0: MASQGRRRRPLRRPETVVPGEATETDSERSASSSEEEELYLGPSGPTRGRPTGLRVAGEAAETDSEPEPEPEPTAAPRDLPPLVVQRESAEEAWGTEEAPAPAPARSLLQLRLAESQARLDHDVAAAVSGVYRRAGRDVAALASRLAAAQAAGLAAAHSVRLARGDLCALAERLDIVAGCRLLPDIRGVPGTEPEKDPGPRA
UniProt P55957: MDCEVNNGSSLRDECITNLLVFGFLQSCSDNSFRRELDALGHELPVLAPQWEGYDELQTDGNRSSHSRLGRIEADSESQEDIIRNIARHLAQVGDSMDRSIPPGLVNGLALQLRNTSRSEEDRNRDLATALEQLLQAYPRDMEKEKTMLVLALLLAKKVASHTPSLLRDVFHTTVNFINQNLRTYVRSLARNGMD
UniProt Q6QNY1: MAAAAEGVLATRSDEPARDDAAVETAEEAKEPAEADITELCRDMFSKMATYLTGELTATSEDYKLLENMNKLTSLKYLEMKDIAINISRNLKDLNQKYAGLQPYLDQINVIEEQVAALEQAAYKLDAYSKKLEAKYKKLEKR
UniProt Q96G01: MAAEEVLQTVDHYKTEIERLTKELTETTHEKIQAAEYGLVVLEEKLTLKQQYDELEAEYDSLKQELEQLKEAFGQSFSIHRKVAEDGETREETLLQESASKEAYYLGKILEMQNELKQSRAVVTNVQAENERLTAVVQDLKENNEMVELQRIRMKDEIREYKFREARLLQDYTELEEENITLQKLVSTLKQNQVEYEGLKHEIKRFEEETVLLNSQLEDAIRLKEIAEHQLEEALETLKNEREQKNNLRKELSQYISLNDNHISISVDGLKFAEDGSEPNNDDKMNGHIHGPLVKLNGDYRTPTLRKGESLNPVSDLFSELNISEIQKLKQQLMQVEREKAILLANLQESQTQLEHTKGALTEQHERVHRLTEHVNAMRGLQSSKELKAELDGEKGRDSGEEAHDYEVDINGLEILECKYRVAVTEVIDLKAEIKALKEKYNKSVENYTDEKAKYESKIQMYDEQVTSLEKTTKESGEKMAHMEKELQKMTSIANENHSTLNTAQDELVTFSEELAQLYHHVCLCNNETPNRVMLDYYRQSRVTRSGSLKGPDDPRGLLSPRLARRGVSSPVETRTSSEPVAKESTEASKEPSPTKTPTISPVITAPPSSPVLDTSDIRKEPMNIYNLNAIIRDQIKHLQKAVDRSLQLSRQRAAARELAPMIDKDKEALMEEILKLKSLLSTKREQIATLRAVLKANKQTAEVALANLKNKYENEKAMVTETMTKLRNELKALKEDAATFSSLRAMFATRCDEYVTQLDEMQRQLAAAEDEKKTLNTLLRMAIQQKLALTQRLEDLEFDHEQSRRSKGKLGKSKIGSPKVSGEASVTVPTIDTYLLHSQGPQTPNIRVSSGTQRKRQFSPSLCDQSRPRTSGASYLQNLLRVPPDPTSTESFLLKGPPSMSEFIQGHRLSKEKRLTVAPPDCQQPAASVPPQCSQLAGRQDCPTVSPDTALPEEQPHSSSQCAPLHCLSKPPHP
UniProt Q9NUP1: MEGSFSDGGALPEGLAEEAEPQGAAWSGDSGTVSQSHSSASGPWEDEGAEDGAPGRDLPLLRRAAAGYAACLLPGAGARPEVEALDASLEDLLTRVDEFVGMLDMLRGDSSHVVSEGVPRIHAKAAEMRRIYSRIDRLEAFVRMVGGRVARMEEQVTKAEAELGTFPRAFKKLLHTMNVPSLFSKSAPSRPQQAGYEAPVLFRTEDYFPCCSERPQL
UniProt P21953: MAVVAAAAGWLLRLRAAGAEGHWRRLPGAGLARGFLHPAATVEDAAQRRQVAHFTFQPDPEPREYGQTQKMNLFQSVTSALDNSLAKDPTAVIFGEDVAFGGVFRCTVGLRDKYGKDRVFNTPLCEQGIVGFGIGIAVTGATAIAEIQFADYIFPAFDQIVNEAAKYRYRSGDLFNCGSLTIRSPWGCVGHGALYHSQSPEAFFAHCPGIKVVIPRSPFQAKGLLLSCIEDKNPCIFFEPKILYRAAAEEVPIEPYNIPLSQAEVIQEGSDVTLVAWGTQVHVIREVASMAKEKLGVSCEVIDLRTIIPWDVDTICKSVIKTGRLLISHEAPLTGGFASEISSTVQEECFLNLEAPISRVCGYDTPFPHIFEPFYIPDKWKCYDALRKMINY

How the values were obtained:
Assay in all cases: log2 fold change, soluble protein after heating vs DMSO (PISA); higher = thermal stabilisation; K562 cells, 10 uM, 30 min; active = over 0.2 and 3.5 SD of the protein, either way, in both replicates (recomputed)
bafetinib = compound: Cc1ccc(NC(=O)c2ccc(CN3CC[C@H](N(C)C)C3)c(C(F)(F)F)c2)cc1Nc1nccc(-c2cncnc2)n1 [bafetinib]
How it was run: (§1)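 K562 cells at 2×10^6 cells/mL were treated for 30 min with 10 μM compound, and aliquots were heated for 3 min over 48°C-58°C before pooling. Extraction used PBS with 0.5% NP-40 at 4°C, and soluble protein was the supernatant after 21,000xg for 90 min, measured by TMTpro 16plex LC-MS/MS with channel sums equalised. Thermal stability values, relative to control samples and from duplicates, are log2 fold changes.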

[1] = compound: Cc1cccc(CC(=O)N2CCc3c2ccc(-c2cn(C)c4ncnc(N)c24)c3F)n1
How it was run: as §1

nilotinib = compound: Cc1cn(-c2cc(NC(=O)c3ccc(C)c(Nc4nccc(-c5cccnc5)n4)c3)cc(C(F)(F)F)c2)cn1 [nilotinib]
How it was run: as §1

[2] = compound: Cc1nc(Nc2n[nH]c3c2CN(C(=O)N[C@H](CN(C)C)c2ccccc2)C3(C)C)c2sccc2n1
How it was run: as §1

dasatinib = compound: Cc1nc(Nc2ncc(C(=O)Nc3c(C)cccc3Cl)s2)cc(N2CCN(CCO)CC2)n1 [dasatinib]
How it was run: as §1

[3] = compound: Cc1ncc(-c2ccnc(Nc3ccc(S(C)(=O)=O)cc3)n2)n1C(C)C
How it was run: as §1

[4] = compound: Cn1cc(-c2ccc3c(c2)CCN3C(=O)Cc2cccc(C(F)(F)F)c2)c2c(N)ncnc21
How it was run: as §1

[5] = compound: Cn1cc(-c2ccc3nnc(C(F)(F)c4ccc5ncccc5c4)n3n2)cn1
How it was run: as §1

tipifarnib = compound: Cn1cncc1[C@@](N)(c1ccc(Cl)cc1)c1ccc2c(c1)c(-c1cccc(Cl)c1)cc(=O)n2C [tipifarnib]
How it was run: as §1

mubritinib = compound: FC(F)(F)c1ccc(/C=C/c2nc(COc3ccc(CCCCn4ccnn4)cc3)co2)cc1 [mubritinib]
How it was run: as §1

[6] = compound: NC(=O)Nc1cc(-c2cccc(F)c2)sc1C(=O)N[C@H]1CCCNC1
How it was run: as §1

[7] = compound: NC(=O)c1cnc(N[C@@H]2CCCC[C@@H]2N)nc1Nc1cccc(-n2nccn2)c1
How it was run: as §1

[8] = compound: NC1(c2ccc(-c3nc4ccn5c(=O)[nH]nc5c4cc3-c3ccccc3)cc2)CCC1
How it was run: as §1

[9] = compound: NCC(=O)Nc1ccc(-n2nc(C(F)(F)F)cc2-c2ccc3c(ccc4ccccc43)c2)cc1
How it was run: as §1

entinostat = compound: Nc1ccccc1NC(=O)c1ccc(CNC(=O)OCc2cccnc2)cc1 [entinostat]
How it was run: as §1

vorinostat = compound: O=C(CCCCCCC(=O)Nc1ccccc1)NO [vorinostat]
How it was run: as §1

citarinostat = compound: O=C(CCCCCCNC(=O)c1cnc(N(c2ccccc2)c2ccccc2Cl)nc1)NO [citarinostat]
How it was run: as §1

silmitasertib = compound: O=C(O)c1ccc2c(c1)nc(Nc1cccc(Cl)c1)c1ccncc12 [silmitasertib]
How it was run: as §1

[10] = compound: O=C1NC(=O)C(c2cnc3ccccn23)=C1c1cn2c3c(cc(F)cc13)CN(C(=O)N1CCCCC1)CC2
How it was run: as §1

[11] = compound: c1cc(OCCN2CCCCC2)cc(-c2n[nH]c3ccc(-c4nnc[nH]4)cc23)c1
How it was run: as §1

Target | log2 fold change (bafetinib) | log2 fold change [1] | log2 fold change (nilotinib) | log2 fold change [2] | log2 fold change (dasatinib) | log2 fold change [3] | log2 fold change [4] | log2 fold change [5] | log2 fold change (tipifarnib) | log2 fold change (mubritinib) | log2 fold change [6] | log2 fold change [7] | log2 fold change [8] | log2 fold change [9] | log2 fold change (entinostat) | log2 fold change (vorinostat) | log2 fold change (citarinostat) | log2 fold change (silmitasertib) | log2 fold change [10] | log2 fold change [11]
BMP1 (UniProt P13497) | inactive: -0.057 | – | – | – | – | – | – | – | – | – | – | – | – | – | – | – | – | – | – | –
BECN1 (UniProt Q14457) | inactive: 0.063 | inactive: -0.032 | inactive: 0.032 | inactive: -0.025 | inactive: -0.072 | inactive: 0.076 | inactive: -0.015 | inactive: -0.038 | inactive: -0.003 | inactive: 0.023 | inactive: 0.045 | inactive: 0.083 | inactive: -0.006 | inactive: -0.016 | inactive: -0.024 | inactive: -0.073 | inactive: -0.046 | inactive: 0.026 | inactive: -0.071 | inactive: 0.021
BAX isoform 2 (UniProt Q07812) | inactive: -0.057 | inactive: -0.032 | inactive: -0.012 | inactive: -0.015 | inactive: 0.002 | inactive: -0.024 | inactive: 0.068 | inactive: 0.044 | inactive: 0.017 | inactive: 0.038 | inactive: -0.005 | inactive: 0.049 | inactive: -0.016 | inactive: -0.006 | inactive: 0.002 | inactive: -0.115 | inactive: -0.035 | inactive: -0.017 | inactive: -0.097 | inactive: -0.011
BLVRA (UniProt P53004) | inactive: -0.001 | inactive: 0.008 | inactive: -0.028 | inactive: -0.008 | inactive: -0.107 | inactive: -0.062 | inactive: 0.081 | inactive: 0.025 | inactive: -0.098 | inactive: -0.016 | inactive: 0 | inactive: -0.032 | inactive: -0.157 | inactive: -0.01 | inactive: -0.016 | inactive: 0.028 | inactive: 0.021 | inactive: -0.038 | inactive: -0.074 | inactive: -0.06
B4GALNT1 (UniProt Q00973) | inactive: 0.141 | inactive: -0.042 | inactive: 0.083 | inactive: 0.012 | inactive: 0.076 | inactive: -0.125 | inactive: -0.128 | inactive: 0.036 | inactive: 0.025 | inactive: 0.015 | inactive: -0.001 | inactive: -0.062 | inactive: -0.093 | inactive: 0.092 | inactive: 0.02 | inactive: 0.003 | active: 0.538 | inactive: 0.062 | inactive: -0.095 | inactive: 0.064
BIRC2 (UniProt Q13490) | inactive: -0.026 | inactive: -0.066 | inactive: 0.021 | inactive: -0.054 | inactive: -0.103 | inactive: -0.011 | inactive: 0.039 | inactive: 0.024 | inactive: -0.012 | inactive: 0.02 | inactive: -0.048 | inactive: -0.07 | inactive: -0.042 | inactive: -0.066 | inactive: -0.044 | inactive: 0.075 | inactive: 0.019 | inactive: -0.041 | inactive: -0.044 | inactive: -0.07
BCL10 (UniProt O95999) | inactive: -0.088 | inactive: -0.008 | inactive: -0.042 | inactive: -0.114 | inactive: 0.013 | inactive: -0.026 | inactive: 0.023 | inactive: -0.011 | inactive: -0.05 | inactive: 0.033 | inactive: 0.005 | inactive: -0.038 | inactive: -0.051 | inactive: -0.066 | inactive: 0.043 | inactive: 0.04 | inactive: 0.145 | inactive: 0.025 | inactive: -0.001 | inactive: -0.048
BAG3 (UniProt O95817) | inactive: -0.097 | inactive: -0.163 | inactive: 0.043 | inactive: -0.017 | inactive: 0.038 | inactive: -0.018 | inactive: 0.012 | inactive: -0.001 | inactive: 0.036 | inactive: 0.004 | inactive: -0.016 | inactive: -0.013 | inactive: -0.019 | inactive: -0.007 | inactive: -0.003 | inactive: -0.102 | inactive: -0.021 | inactive: 0.008 | inactive: -0.079 | inactive: 0.01
BCKDK (UniProt O14874) | inactive: -0.006 | inactive: -0.067 | inactive: -0.093 | inactive: 0.058 | inactive: 0.142 | inactive: 0.041 | inactive: -0.073 | inactive: -0.058 | inactive: 0 | inactive: -0.006 | inactive: -0.03 | inactive: -0.02 | inactive: 0.072 | inactive: 0.046 | inactive: -0.031 | inactive: 0.025 | inactive: 0 | inactive: 0.018 | inactive: -0.027 | inactive: -0.096
BCS1L, A0A2R8Y7T3 | inactive: 0.1 | – | – | – | – | – | – | – | – | – | – | – | – | – | – | – | – | – | – | –
BNIP1 (UniProt Q12981) | inactive: -0.095 | inactive: 0.032 | inactive: -0.002 | inactive: -0.004 | inactive: -0.047 | inactive: -0.009 | inactive: 0.027 | inactive: 0.058 | inactive: 0.002 | inactive: 0.046 | inactive: -0.014 | inactive: -0.111 | inactive: -0.043 | inactive: -0.06 | inactive: 0.004 | inactive: 0.047 | inactive: 0.019 | inactive: 0.015 | inactive: -0.03 | inactive: -0.026
BLOC1S3 (UniProt Q6QNY0) | inactive: -0.02 | inactive: 0.006 | inactive: -0.067 | inactive: 0.031 | inactive: -0.051 | inactive: -0.022 | inactive: 0.017 | inactive: 0.078 | inactive: -0.103 | inactive: -0.027 | inactive: 0.057 | inactive: 0 | inactive: -0.014 | inactive: -0.023 | inactive: -0.06 | inactive: 0.039 | inactive: -0.018 | inactive: 0.006 | inactive: -0.013 | inactive: -0.014
BID isoform 2 (UniProt P55957) | inactive: -0.035 | inactive: -0.071 | inactive: 0.019 | inactive: -0.006 | inactive: 0.018 | inactive: 0.005 | inactive: 0.038 | inactive: 0.007 | inactive: -0.079 | inactive: 0.044 | inactive: 0.032 | inactive: 0.019 | inactive: -0.037 | inactive: 0.052 | inactive: -0.018 | inactive: -0.039 | inactive: 0.006 | inactive: -0.008 | inactive: 0.042 | inactive: 0.005
BLOC1S2 (UniProt Q6QNY1) | inactive: -0.105 | inactive: 0.037 | inactive: 0.007 | inactive: -0.06 | inactive: 0.038 | inactive: 0.008 | inactive: 0.041 | inactive: 0.031 | inactive: -0.107 | inactive: 0.036 | inactive: -0.033 | inactive: -0.052 | inactive: -0.043 | inactive: 0.049 | inactive: -0.041 | inactive: -0.001 | inactive: 0.17 | inactive: 0.067 | inactive: -0.086 | inactive: -0.018
BRD4 (UniProt O60885) | inactive: 0.067 | inactive: 0.054 | inactive: -0.144 | inactive: 0.017 | inactive: -0.094 | inactive: -0.233 | inactive: 0.011 | inactive: -0.046 | inactive: -0.09 | inactive: 0.032 | inactive: -0.031 | inactive: -0.096 | inactive: -0.112 | inactive: -0.119 | inactive: -0.097 | active: -0.463 | inactive: -0.123 | inactive: 0.024 | inactive: -0.129 | inactive: 0.028
BICD1 (UniProt Q96G01) | inactive: 0.059 | inactive: -0.031 | inactive: 0.075 | inactive: -0.057 | inactive: -0.132 | inactive: 0.044 | inactive: 0.057 | inactive: 0.16 | inactive: -0.048 | inactive: 0.039 | inactive: 0.003 | inactive: -0.064 | inactive: -0.039 | inactive: -0.01 | inactive: 0.003 | inactive: 0.015 | inactive: 0.045 | inactive: 0.152 | inactive: 0.036 | inactive: -0.081
BLOC1S4 (UniProt Q9NUP1) | inactive: -0.029 | inactive: -0.028 | inactive: -0.012 | inactive: -0.01 | inactive: -0.048 | inactive: -0.014 | inactive: 0.016 | inactive: 0.109 | inactive: -0.017 | inactive: -0.018 | inactive: -0.052 | inactive: 0.02 | inactive: 0.001 | inactive: -0.043 | inactive: -0.056 | inactive: 0.038 | inactive: 0.133 | inactive: -0.016 | inactive: 0.053 | inactive: -0.015
BCKDHB (UniProt P21953) | inactive: -0.012 | inactive: -0.062 | inactive: 0.134 | inactive: 0.118 | inactive: -0.071 | inactive: -0.041 | inactive: 0.137 | inactive: 0.032 | inactive: 0.012 | inactive: 0.09 | inactive: 0.108 | inactive: 0.053 | inactive: -0.089 | inactive: 0.087 | inactive: -0.2 | inactive: -0.126 | inactive: 0.06 | inactive: -0.011 | inactive: -0.024 | inactive: -0.001

Single records (already shown). Values in the order: log2 fold change (bafetinib) | log2 fold change [1] | log2 fold change (nilotinib) | log2 fold change [2] | log2 fold change (dasatinib) | log2 fold change [3] | log2 fold change [4] | log2 fold change [5] | log2 fold change (tipifarnib) | log2 fold change (mubritinib) | log2 fold change [6] | log2 fold change [7] | log2 fold change [8] | log2 fold change [9] | log2 fold change (entinostat) | log2 fold change (vorinostat) | log2 fold change (citarinostat) | log2 fold change (silmitasertib) | log2 fold change [10] | log2 fold change [11]
BID isoform 2 (UniProt P55957) is listed with inactive: -0.035 | inactive: -0.071 | inactive: 0.019 | inactive: -0.006 | inactive: 0.018 | inactive: 0.005 | inactive: 0.038 | inactive: 0.007 | inactive: -0.079 | inactive: 0.044 | inactive: 0.032 | inactive: 0.019 | inactive: -0.037 | inactive: 0.052 | inactive: -0.018 | inactive: -0.039 | inactive: 0.006 | inactive: -0.008 | inactive: 0.042 | inactive: 0.005
BCKDHB (UniProt P21953) is listed with inactive: -0.012 | inactive: -0.062 | inactive: 0.134 | inactive: 0.118 | inactive: -0.071 | inactive: -0.041 | inactive: 0.137 | inactive: 0.032 | inactive: 0.012 | inactive: 0.09 | inactive: 0.108 | inactive: 0.053 | inactive: -0.089 | inactive: 0.087 | inactive: -0.2 | inactive: -0.126 | inactive: 0.06 | inactive: -0.011 | inactive: -0.024 | inactive: -0.001
